Test results published in patent publication US20240287202A1 (XYPHOS BIOSCIENCES, published 2024).
Results are given in words; binding and its absence hold for the method and conditions named. Some binding calls cover weakened binding; strength is not graded here. Tags and fused reporters may be left off the sequences shown.

Tests used:
[1] = target: iNKG2D.YA-CAR on primary human T cells (convertibleCAR) (human); experiment: flow cytometry on transduced CD8+ T cells, PE anti-human kappa chain (FIG. 7C)
[2] = target: iNKG2D.YA-CAR on primary human T cells (convertibleCAR) (human); experiment: flow cytometry of blood T cells of NSG mice with subcutaneous Raji tumors; anti-human F(ab')2 staining
[3] = target: iNKG2D.YA-CAR on primary human T cells (convertibleCAR) (human); experiment: flow cytometry of blood T cells from treated NSG mice, anti-F(ab')2 (FIG. 11E)
[4] = target: iNKG2D.YA-CAR on primary human T cells (convertibleCAR) (human); experiment: flow cytometry of CD8+ T cells; Rituximab.LC-U2S3 followed by PE mouse anti-human kappa, against GFP
[5] = target: iNKG2D.YA-CAR on primary human T cells (convertibleCAR) (human); experiment: flow cytometry on convertibleCAR-T cells armed ex vivo with 5 nM MicAbody
[6] = target: iNKG2D.YA-CAR on primary human T cells (convertibleCAR) (human); experiment: flow cytometry of blood T cells of NSG mice with Raji lymphoma; biotinylated anti-human F(ab')2 and streptavidin-PE
[7] = target: iNKG2D.YA-CAR on primary human T cells (convertibleCAR) (human); experiment: flow cytometry; convertibleCAR-CD8 cells incubated 30 min with Alexa Fluor 647 Rituximab.LC-U2S3, washed

Measured: binding

B1: Rituximab.LC-U2S3 MicAbody (U2S3 A1-A2 domain fused to the C-terminus of the rituximab kappa light chain) (bispecific antibody)
heavy: QVQLQQPGAELVKPGASVKMSCKASGYTFTSYNMHWVKQTPGRGLEWIGAIYPGNGDTSYNQKFKGKATLTADKSSSTAYMQLSSLTSEDSAVYYCARSTYYGGDWYFNVWGAGTTVTVSAA
light (part 1 of 2): QIVLSQSPAILSASPGEKVTMTCRASSSVSYIHWFQQKPGSSPKPWIYATSNLASGVPVRFSGSGSGTSYSLTISRVEAEDAATYYCQQWTSNPPTFGGGTKLEIK
light (part 2 of 2): APTSSSGGGGSEPHSLSYDITVIPKFRPGPRWCAVQGQVDEKTFLHYDCGQKTVTPVSPLGKKLQVTTAWKAQNPVLREVVDILTEQLWDIQLENYTPKEPLTLQARMSCEQKAEGHSSGSWQFSFDGQIFLLFDSEKRMWTTVHPGARKMKEKWENDKVVATKLYLWSMGDCIGWLEDFLMGMDSTLEPS
notes: also called Rit-S3; Ritux-S3; not shown: human IgG1 heavy-chain constant region, ADCC-deficient; human kappa light-chain constant region
binds: [1] | [2] | [3] | [4] | [5] | [6] | [7]
